Results as given in US20240180895A1, “USE OF KAPPA OPIOID RECEPTOR AGONISTS TO TREAT CARDIOVASCULAR DISEASE” (Board of Supervisors of Louisiana State University and …, priority 2021, published 2024).

Test system: Sprague-Dawley rats
Experiment: Prevention of diuretic resistance to twice daily furosemide by nalfurafine, 5-hour urine (FIG. 15)
Format: in vivo, rat
Description: Male Sprague-Dawley rats were placed in individual metabolic cages in a room with 12-hour automatic light on/off control and allowed tap water and rodent chow ad libitum. Over the next two (2) days (control period), rats were administered vehicle (5% NaOH; 1 M PBS, IP) in the morning (9:00 am) and afternoon (2:00 pm) of each day, with urine collected for 5-hours starting immediately after the first injection. […] This was repeated for 4 consecutive days (experimental period).

NS(=O)(=O)c1cc(C(=O)O)c(NCc2ccco2)cc1Cl [furosemide]
Excretion of sodium and potassium, furosemide alone vs combination: excreted significantly more sodium and potassium than the combination group on day 1
